Measured values from PubChem BioAssay AID504467 (National Center for Advancing Translational Sciences (NCATS), 2011).
Screen size: about 330,000 compounds; about 7,700 (2.3%) were called active. This list was built around the results that the source calls inconclusive (neither active nor inactive); the mix of calls is not that of the screen. Calls come from the whole dose curve; as a rule, active = well fitted inhibition curve with a large enough effect; inconclusive = small, poorly fitted or top-dose-only effect, or effect the other way; inactive = flat fitted curve, though single readings scatter. Potencies beside an inconclusive call are fits to weak or partial responses and may not hold up.
Potency is the fitted concentration of half-maximal effect.

Test: qHTS screen for small molecules that inhibit ELG1-dependent DNA repair in human embryonic kidney (HEK293T) cells expressing luciferase-tagged ELG1; note: nearly all actives have a fitted effect of over 55% in size
Settings: HEK293T ELG1-luciferase reporter, luminescence, 16 h, DNA damage induced by 5-fluorouridine; series mostly up to 46.1 µM
Outline: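 Step one: seed 2,000 cells per well. Step two: pin-transfer compound or DMSO alongside 5-fluorouridine. Step three: incubate 16 hr, 37 °C, 5% CO2. Step four: add ONE-Glo, wait 30 min, read luminescence.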
With Cc1ccc(-c2nc(CS(=O)CC(=O)N3CCN(c4ccccc4)CC3)c(C)o2)cc1 (stereo not drawn) the Potency was “inactive”.
With COc1cc(CC(=O)Nc2ccccc2N2CCCCC2)cc(OC)c1OC the Potency was inconclusive: 18.3 µM [inhibitor, single point].
In the case of CCC(=O)Nc1nc(-c2ccc3c(c2)OCCO3)cs1, the Potency is reported as inconclusive: 5.17 µM [activator, partial curve, poor fit].
In the case of CCOC(=O)[C@@H]1[C@H]2COc3cc(OC)ccc3[C@@H]2N2C(=O)N(c3ccc(Cl)cc3)C(=O)[C@@]12C, the Potency is reported as inconclusive: 29.1 µM [activator, single point].
For O=C(N[C@H]1C/C=C\C[C@@H](CC(=O)N(CCO)Cc2ccccc2)C(=O)N2CCC[C@H]2COC1=O)OCC1c2ccccc2-c2ccccc21, the Potency was “inactive”.
With CC(C)(C)NC(=O)NC(=O)CN1CCN(c2cccc(Cl)c2)CC1 the Potency was inconclusive: 20.6 µM [inhibitor, partial curve, poor fit].
In the case of N#C/C(=C/c1ccc(N2CCOCC2)o1)c1ccc(Br)cc1, the Potency is reported as inconclusive: 35.5 µM [activator, single point].
In the case of Cc1ccc(Oc2ccc(Oc3ccc(C)cc3)nn2)cc1, the Potency is reported as inconclusive: 9.2 µM [activator, partial curve, poor fit].
For CCCCn1nc(C(=O)Nc2ccc3c(c2)OCO3)c2ccccc2c1=O, the Potency was inconclusive: 29.1 µM [inhibitor, single point].
For CCC1=NN(C(=O)C(=O)Nc2ccccc2OC)C(O)(C(F)(F)F)C1 (stereo not drawn), the Potency was “inactive”.
For Cc1nc(C)n(CC(C)C(=O)N2CCN(S(=O)(=O)c3ccccc3)CC2)n1 (stereo not drawn), the Potency was “inactive”.
For O=C(NCc1ccc(Cl)cc1)c1cccc(NC2=NC3CS(=O)(=O)CC3S2)c1 (stereo not drawn), the Potency was “inactive”.
In the case of O=C(CSc1nc2[nH]ncc2c(=O)[nH]1)Nc1ccc(Cl)cc1, the Potency is reported as “inactive”.
In the case of Cc1ccc(-c2csc(N3CCC[C@@H]3C(=O)NCCn3c(C(F)(F)F)nc4ccccc43)n2)cc1, the Potency is reported as inconclusive: 29.1 µM [inhibitor, single point].
For O=C(Nc1ccccc1)OCc1ccccn1, the Potency was inconclusive: 11.2 µM [activator, partial curve, poor fit].
For CCCNC(=O)CSc1nnc(-c2ccco2)n1C, the Potency was “inactive”.
With CCOc1ccccc1NC(=O)c1nc(S(=O)(=O)Cc2ccccc2)ncc1Cl the Potency was inconclusive: 32.6 µM [inhibitor, single point].
For COc1cccc(Cn2c(=O)sc3ccccc3c2=O)c1, the Potency was inconclusive: 29.1 µM [activator, single point].
In the case of Cc1cc(NC(=O)CSc2nc(=O)cc(N)n2-c2ccc(C)c(C)c2)no1, the Potency is reported as “inactive”.
With O=C(Nc1ccccn1)c1cccc(S(=O)(=O)N2CCc3ccccc3C2)c1 the Potency was inconclusive: 35.5 µM [inhibitor, single point].
With Cc1cccc2cc(C(c3nnnn3Cc3ccccc3)N3CCN(c4ccccc4)CC3)c(=O)[nH]c12 (stereo not drawn) the Potency was inconclusive: 29.1 µM [inhibitor, single point].
With COc1cc(C(=S)N2CCCC2)cc(OC)c1OC the Potency was inconclusive: 7.3 µM [activator, partial curve, poor fit].
In the case of O=C(O)c1ccccc1OC(C(=O)Nc1cc(Cl)cc(Cl)c1)c1ccccc1 (stereo not drawn), the Potency is reported as inconclusive: 16.4 µM [activator, partial curve, poor fit].
For Cc1sc2ncnc(N3CCC(C(=O)Nc4ccc(S(N)(=O)=O)cc4)CC3)c2c1C, the Potency was active: 4.11 µM.
With Cc1cccc(/C=N/n2c(-c3ccccc3)n[nH]c2=S)c1O the Potency was “inactive”.
With CCc1ccc2[nH]cc(S(=O)(=O)c3ccc(C)c(C)c3)c(=O)c2c1 the Potency was inconclusive: 11.6 µM [inhibitor, partial curve].
For COc1ccc(OC)c(-c2cc(C(=O)Nc3cc(C)n(Cc4ccc(Cl)cc4)n3)no2)c1, the Potency was active: 20.6 µM.
With CCn1c(C)nc2cc(C(=O)NNC(=S)NC(=O)c3ccc(OC)cc3)ccc21 the Potency was inconclusive: 29.1 µM [inhibitor, single point].
For Cc1cccc(C)c1-n1c(C)cc(/C=N/NC(=O)CSc2ncccn2)c1C, the Potency was inconclusive: 25.9 µM [activator, single point].
In the case of Cc1cc(C)n(-c2nnc3n2N=C(c2c[nH]c4ccccc24)CS3)n1, the Potency is reported as inconclusive: 23.1 µM [inhibitor, single point].
With O=C(CCn1nnnc1CN1CCOCC1)N1CCC(c2cccc(Cl)c2)C1 (stereo not drawn) the Potency was “inactive”.
With CSc1ccccc1NC(=O)Cn1ccsc1=N the Potency was “inactive”.
In the case of Cc1oc(-c2ccc3c(c2)OCCO3)cc1C(=O)NC(Cc1ccccc1)C(=O)O (stereo not drawn), the Potency is reported as inconclusive: 29.1 µM [activator, single point].
With CC(C)C[C@H](NC(=O)[C@@H]1Cc2ccccc2CN1)C(=O)Nc1ccc(C(C)C)cc1 the Potency was inconclusive: 20.6 µM [activator, single point].
In the case of CC(=O)c1ccc(NC(=S)N2CC(C)CC(C)C2)cc1 (stereo not drawn), the Potency is reported as inconclusive: 29.1 µM [activator, single point].
For C=Cn1cc[n+](CC(=O)c2cccs2)c1, the Potency was “inactive”.
In the case of O=C1CCN(S(=O)(=O)c2cccs2)c2ccc(C(F)(F)F)cc2N1, the Potency is reported as “inactive”.
For Cc1ccc2sc(N(CCCN(C)C)C(=O)c3ccc(S(=O)(=O)N4CCCCCC4)cc3)nc2c1C, the Potency was inconclusive: 25.9 µM [inhibitor, single point].
With COC(=O)c1nnn(-c2nonc2N)c1CN1CCc2ccccc21 the Potency was inconclusive: 18.4 µM [inhibitor, single point].
With COCC1CCCCN1C(=O)c1ccc(OC)c(OC2CCN(C(C)C)CC2)c1 (stereo not drawn) the Potency was inconclusive: 18.3 µM [activator, partial curve].
For Cc1nnc(SCC(=O)Nc2ccc(-c3nc4ccccc4s3)cc2)s1, the Potency was inconclusive: 1.03 µM [activator, full curve].
For CCC(C)Sc1ccc(-c2nc3cnccn3c2NC2CCCCC2)cc1 (stereo not drawn), the Potency was inconclusive: 35.5 µM [inhibitor, single point].
In the case of O=C(NCc1ccco1)c1cc(-c2cccs2)on1, the Potency is reported as inconclusive: 14.6 µM [activator, partial curve].
